Results reported in PMC5923425, “Structural analysis of human ARS2 as a platform for co-transcriptional RNA sorting” (Nature Communications, 2018).

The chains behind the UniProt entries cited, without tags or fusion partners.
UniProt Q06265: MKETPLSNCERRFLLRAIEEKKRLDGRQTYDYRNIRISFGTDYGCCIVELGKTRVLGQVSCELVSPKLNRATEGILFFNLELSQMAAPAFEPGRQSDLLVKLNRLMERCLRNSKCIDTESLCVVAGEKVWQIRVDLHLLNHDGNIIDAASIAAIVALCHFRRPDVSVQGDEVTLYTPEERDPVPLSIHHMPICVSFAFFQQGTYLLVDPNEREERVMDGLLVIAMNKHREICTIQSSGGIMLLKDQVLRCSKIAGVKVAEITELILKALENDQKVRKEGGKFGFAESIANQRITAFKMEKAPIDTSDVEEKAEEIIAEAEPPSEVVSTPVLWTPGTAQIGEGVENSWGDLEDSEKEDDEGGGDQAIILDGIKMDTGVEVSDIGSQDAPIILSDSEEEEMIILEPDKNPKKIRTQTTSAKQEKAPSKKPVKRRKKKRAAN
UniProt Q9Y580: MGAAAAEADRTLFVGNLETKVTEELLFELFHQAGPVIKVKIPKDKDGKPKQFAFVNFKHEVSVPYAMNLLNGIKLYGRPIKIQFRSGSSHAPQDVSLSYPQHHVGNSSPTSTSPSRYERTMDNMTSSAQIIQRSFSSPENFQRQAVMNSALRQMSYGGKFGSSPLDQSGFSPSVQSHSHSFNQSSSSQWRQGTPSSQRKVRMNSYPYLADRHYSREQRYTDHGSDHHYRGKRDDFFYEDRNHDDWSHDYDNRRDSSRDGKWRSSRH
UniProt O60293: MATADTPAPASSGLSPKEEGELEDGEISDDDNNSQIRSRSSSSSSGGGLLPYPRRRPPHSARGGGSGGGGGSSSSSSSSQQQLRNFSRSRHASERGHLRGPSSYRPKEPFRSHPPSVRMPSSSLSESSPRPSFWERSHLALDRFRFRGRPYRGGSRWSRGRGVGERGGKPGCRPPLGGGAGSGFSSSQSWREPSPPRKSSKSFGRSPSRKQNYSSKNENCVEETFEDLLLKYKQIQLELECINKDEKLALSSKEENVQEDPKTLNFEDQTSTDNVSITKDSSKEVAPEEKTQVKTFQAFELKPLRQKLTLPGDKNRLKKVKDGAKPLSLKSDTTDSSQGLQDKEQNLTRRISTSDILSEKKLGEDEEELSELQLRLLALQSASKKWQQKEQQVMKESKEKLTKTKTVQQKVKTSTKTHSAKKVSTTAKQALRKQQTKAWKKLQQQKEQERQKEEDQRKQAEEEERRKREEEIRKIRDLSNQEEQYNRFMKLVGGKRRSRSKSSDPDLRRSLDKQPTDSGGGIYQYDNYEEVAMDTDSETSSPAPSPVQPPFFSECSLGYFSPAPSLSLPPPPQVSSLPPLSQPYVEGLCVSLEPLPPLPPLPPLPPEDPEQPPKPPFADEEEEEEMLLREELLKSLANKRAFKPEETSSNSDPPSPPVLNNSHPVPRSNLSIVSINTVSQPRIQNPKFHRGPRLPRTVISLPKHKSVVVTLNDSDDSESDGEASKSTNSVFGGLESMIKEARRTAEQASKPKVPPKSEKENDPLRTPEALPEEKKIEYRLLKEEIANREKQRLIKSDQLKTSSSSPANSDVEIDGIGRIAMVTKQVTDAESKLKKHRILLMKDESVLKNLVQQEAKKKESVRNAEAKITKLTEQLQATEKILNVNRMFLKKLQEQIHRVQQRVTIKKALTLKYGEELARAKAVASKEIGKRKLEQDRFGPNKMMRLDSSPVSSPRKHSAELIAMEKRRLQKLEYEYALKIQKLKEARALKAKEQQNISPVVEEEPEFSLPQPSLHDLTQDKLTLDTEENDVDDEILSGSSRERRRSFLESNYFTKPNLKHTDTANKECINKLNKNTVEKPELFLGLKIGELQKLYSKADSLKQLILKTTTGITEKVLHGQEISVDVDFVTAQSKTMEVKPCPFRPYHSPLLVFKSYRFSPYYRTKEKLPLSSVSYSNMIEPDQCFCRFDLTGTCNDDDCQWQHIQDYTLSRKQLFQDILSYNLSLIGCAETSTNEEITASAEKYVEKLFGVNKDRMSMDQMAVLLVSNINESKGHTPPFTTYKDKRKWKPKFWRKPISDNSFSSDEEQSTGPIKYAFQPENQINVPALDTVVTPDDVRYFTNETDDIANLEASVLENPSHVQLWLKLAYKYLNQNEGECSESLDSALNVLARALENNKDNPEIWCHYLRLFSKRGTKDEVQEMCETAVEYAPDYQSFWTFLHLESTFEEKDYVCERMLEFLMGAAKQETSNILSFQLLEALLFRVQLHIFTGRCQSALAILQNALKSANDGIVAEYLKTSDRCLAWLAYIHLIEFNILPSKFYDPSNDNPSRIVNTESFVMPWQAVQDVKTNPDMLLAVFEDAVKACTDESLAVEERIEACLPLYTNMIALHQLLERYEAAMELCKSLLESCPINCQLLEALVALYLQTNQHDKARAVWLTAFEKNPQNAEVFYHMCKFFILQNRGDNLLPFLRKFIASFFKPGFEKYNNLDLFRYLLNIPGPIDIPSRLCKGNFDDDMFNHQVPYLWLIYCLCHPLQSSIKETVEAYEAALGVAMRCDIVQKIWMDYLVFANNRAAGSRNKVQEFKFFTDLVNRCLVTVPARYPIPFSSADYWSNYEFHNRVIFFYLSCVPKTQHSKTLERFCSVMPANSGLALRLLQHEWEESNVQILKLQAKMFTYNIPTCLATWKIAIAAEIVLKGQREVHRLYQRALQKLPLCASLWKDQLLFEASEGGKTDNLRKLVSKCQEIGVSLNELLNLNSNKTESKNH
UniProt Q16630: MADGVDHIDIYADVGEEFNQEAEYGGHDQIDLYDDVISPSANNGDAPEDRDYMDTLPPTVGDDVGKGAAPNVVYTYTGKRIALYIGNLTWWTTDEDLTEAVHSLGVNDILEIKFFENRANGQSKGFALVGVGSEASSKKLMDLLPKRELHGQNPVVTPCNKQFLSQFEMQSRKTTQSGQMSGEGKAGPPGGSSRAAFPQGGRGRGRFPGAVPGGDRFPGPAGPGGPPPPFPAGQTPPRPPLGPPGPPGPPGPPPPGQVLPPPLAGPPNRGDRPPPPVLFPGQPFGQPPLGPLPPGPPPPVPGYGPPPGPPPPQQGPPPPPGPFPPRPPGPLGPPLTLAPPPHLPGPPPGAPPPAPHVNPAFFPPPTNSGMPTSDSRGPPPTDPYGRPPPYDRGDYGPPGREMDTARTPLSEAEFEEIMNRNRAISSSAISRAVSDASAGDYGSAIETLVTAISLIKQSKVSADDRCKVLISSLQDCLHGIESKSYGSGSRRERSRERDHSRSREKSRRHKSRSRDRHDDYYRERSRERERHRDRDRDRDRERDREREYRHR
UniProt Q6NZY4: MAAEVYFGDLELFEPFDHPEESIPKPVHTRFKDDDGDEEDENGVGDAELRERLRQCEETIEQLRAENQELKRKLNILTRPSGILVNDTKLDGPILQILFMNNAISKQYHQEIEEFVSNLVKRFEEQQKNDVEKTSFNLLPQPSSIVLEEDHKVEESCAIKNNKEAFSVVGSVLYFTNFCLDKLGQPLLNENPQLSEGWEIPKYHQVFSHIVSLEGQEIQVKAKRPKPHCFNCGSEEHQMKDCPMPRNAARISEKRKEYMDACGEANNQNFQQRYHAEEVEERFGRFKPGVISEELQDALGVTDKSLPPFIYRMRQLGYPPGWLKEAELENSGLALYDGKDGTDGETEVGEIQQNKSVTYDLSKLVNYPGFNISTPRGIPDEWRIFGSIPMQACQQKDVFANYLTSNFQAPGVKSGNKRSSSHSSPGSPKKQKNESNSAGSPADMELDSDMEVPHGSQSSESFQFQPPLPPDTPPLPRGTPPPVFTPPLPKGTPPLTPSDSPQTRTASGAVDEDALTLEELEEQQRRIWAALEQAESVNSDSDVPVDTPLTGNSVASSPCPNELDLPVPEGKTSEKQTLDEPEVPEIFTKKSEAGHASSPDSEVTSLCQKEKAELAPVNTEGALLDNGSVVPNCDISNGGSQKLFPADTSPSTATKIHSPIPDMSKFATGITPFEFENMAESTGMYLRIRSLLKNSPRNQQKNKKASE
UniProt Q5TA45: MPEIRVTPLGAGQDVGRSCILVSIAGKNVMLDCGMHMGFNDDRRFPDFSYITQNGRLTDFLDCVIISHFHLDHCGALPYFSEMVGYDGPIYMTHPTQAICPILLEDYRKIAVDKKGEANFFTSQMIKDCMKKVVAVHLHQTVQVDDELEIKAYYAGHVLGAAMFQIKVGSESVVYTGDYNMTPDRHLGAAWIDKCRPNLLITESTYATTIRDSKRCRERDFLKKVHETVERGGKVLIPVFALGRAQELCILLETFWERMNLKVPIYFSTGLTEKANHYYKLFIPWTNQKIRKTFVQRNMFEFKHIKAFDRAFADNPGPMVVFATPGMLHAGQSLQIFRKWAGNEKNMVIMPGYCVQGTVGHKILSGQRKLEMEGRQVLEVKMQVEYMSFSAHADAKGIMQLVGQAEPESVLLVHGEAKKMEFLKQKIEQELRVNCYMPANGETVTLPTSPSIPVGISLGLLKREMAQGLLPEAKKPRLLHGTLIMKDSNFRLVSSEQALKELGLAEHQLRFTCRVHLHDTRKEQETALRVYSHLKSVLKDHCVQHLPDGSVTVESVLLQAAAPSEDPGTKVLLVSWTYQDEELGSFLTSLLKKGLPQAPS

T1: EGFP–ARS2 wt (human) (UniProt Q9BXP5)
T1 sequence: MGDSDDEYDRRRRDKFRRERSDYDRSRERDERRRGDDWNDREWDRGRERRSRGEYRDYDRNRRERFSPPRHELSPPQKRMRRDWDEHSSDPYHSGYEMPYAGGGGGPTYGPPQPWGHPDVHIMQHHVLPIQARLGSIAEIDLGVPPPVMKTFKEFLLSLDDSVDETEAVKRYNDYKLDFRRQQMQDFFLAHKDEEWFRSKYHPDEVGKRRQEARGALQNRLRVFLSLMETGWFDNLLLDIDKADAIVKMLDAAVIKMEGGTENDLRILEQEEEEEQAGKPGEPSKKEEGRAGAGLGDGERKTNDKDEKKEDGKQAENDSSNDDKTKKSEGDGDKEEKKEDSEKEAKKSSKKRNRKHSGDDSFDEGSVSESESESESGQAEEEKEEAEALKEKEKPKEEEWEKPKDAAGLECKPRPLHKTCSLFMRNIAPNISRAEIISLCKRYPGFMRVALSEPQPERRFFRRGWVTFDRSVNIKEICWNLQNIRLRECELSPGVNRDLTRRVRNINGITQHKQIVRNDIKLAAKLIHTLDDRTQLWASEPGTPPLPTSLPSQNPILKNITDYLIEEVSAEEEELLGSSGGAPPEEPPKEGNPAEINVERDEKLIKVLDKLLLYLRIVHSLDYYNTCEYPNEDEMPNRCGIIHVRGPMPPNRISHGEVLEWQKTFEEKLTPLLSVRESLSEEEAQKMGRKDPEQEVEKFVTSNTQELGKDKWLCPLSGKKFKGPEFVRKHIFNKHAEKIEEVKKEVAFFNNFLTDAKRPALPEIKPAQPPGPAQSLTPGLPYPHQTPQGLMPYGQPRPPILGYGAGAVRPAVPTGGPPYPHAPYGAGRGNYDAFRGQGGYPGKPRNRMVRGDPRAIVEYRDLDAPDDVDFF

B1: PABPN1 (protein, UniProt Q86U42 1-306)
chain: MAAAAAAAAAAGAAGGRGSGPGRRRHLVPGAGGEAGEGAPGGAGDYGNGLESEELEPEELLLEPEPEPEPEEEPPRPRAPPGAPGPGPGSGAPGSQEEEEEPGLVEGDPGDGAIEDPELEAIKARVREMEEEAEKLKELQNEVEKQMNMSPPPGNAGPVIMSIEEKMEADARSIYVGNVDYGATAEELEAHFHGCGSVNRVTILCDKFSGHPKGFAYIEFSDKESVRTSLALDESLFRGRQIKVIPKRTNRPGISTTDRGFPRARYRARTTNYNSSRSRFYSGFNSRPRGRVYRGRARATSWYSPY
B2: EXOSC10 (protein, UniProt Q01780 1-885)
chain: MAPPSTREPRVLSATSATKSDGEMVLPGFPDADSFVKFALGSVVAVTKASGGLPQFGDEYDFYRSFPGFQAFCETQGDRLLQCMSRVMQYHGCRSNIKDRSKVTELEDKFDLLVDANDVILERVGILLDEASGVNKNQQPVLPAGLQVPKTVVSSWNRKAAEYGKKAKSETFRLLHAKNIIRPQLKFREKIDNSNTPFLPKIFIKPNAQKPLPQALSKERRERPQDRPEDLDVPPALADFIHQQRTQQVEQDMFAHPYQYELNHFTPADAVLQKPQPQLYRPIEETPCHFISSLDELVELNEKLLNCQEFAVDLEHHSYRSFLGLTCLMQISTRTEDFIIDTLELRSDMYILNESLTDPAIVKVFHGADSDIEWLQKDFGLYVVNMFDTHQAARLLNLGRHSLDHLLKLYCNVDSNKQYQLADWRIRPLPEEMLSYARDDTHYLLYIYDKMRLEMWERGNGQPVQLQVVWQRSRDICLKKFIKPIFTDESYLELYRKQKKHLNTQQLTAFQLLFAWRDKTARREDESYGYVLPNHMMLKIAEELPKEPQGIIACCNPVPPLVRQQINEMHLLIQQAREMPLLKSEVAAGVKKSGPLPSAERLENVLFGPHDCSHAPPDGYPIIPTSGSVPVQKQASLFPDEKEDNLLGTTCLIATAVITLFNEPSAEDSKKGPLTVAQKKAQNIMESFENPFRMFLPSLGHRAPVSQAAKFDPSTKIYEISNRWKLAQVQVQKDSKEAVKKKAAEQTAAREQAKEACKAAAEQAISVRQQVVLENAAKKRERATSDPRTTEQKQEKKRLKISKKPKDPEPPEKEFTPYDYSQSDFKAFAGNSKSKVSSQFDPNKQTPSGKKCIAAKKIKQSVGNKSMSFPTGKSDRGFRYNWPQR
B3: THRAP3 (protein, UniProt Q9Y2W1 1-955)
chain: MSKTNKSKSGSRSSRSRSASRSRSRSFSKSRSRSRSLSRSRKRRLSSRSRSRSYSPAHNRERNHPRVYQNRDFRGHNRGYRRPYYFRGRNRGFYPWGQYNRGGYGNYRSNWQNYRQAYSPRRGRSRSRSPKRRSPSPRSRSHSRNSDKSSSDRSRRSSSSRSSSNHSRVESSKRKSAKEKKSSSKDSRPSQAAGDNQGDEAKEQTFSGGTSQDTKASESSKPWPDATYGTGSASRASAVSELSPRERSPALKSPLQSVVVRRRSPRPSPVPKPSPPLSSTSQMGSTLPSGAGYQSGTHQGQFDHGSGSLSPSKKSPVGKSPPSTGSTYGSSQKEESAASGGAAYTKRYLEEQKTENGKDKEQKQTNTDKEKIKEKGSFSDTGLGDGKMKSDSFAPKTDSEKPFRGSQSPKRYKLRDDFEKKMADFHKEEMDDQDKDKAKGRKESEFDDEPKFMSKVIGANKNQEEEKSGKWEGLVYAPPGKEKQRKTEELEEESFPERSKKEDRGKRSEGGHRGFVPEKNFRVTAYKAVQEKSSSPPPRKTSESRDKLGAKGDFPTGKSSFSITREAQVNVRMDSFDEDLARPSGLLAQERKLCRDLVHSNKKEQEFRSIFQHIQSAQSQRSPSELFAQHIVTIVHHVKEHHFGSSGMTLHERFTKYLKRGTEQEAAKNKKSPEIHRRIDISPSTFRKHGLAHDEMKSPREPGYKAEGKYKDDPVDLRLDIERRKKHKERDLKRGKSRESVDSRDSSHSRERSAEKTEKTHKGSKKQKKHRRARDRSRSSSSSSQSSHSYKAEEYTEETEEREESTTGFDKSRLGTKDFVGPSERGGGRARGTFQFRARGRGWGRGNYSGNNNNNSNNDFQKRNREEEWDPEYTPKSKKYYLHDDREGEGSDKWVSRGRGRGAFPRGRGRFMFRKSSTSPKWAHDKFSGEEGEIEDDESGTENREEKDNIQPTTE
B4: TRA2A (protein, UniProt Q13595 1-282)
chain: MSDVEENNFEGRESRSQSKSPTGTPARVKSESRSGSRSPSRVSKHSESHSRSRSKSRSRSRRHSHRRYTRSRSHSHSHRRRSRSRSYTPEYRRRRSRSHSPMSNRRRHTGSRANPDPNTCLGVFGLSLYTTERDLREVFSRYGPLSGVNVVYDQRTGRSRGFAFVYFERIDDSKEAMERANGMELDGRRIRVDYSITKRAHTPTPGIYMGRPTHSGGGGGGGGGGGGGGGGRRRDSYYDRGYDRGYDRYEDYDYRYRRRSPSPYYSRYRSRSRSRSYSPRRY
B5: TRA2B (protein, UniProt P62995 1-288)
chain: MSDSGEQNYGERESRSASRSGSAHGSGKSARHTPARSRSKEDSRRSRSKSRSRSESRSRSRRSSRRHYTRSRSRSRSHRRSRSRSYSRDYRRRHSHSHSPMSTRRRHVGNRANPDPNCCLGVFGLSLYTTERDLREVFSKYGPIADVSIVYDQQSRRSRGFAFVYFENVDDAKEAKERANGMELDGRRIRVDFSITKRPHTPTPGIYMGRPTYGSSRRRDYYDRGYDRGYDDRDYYSRSYRGGGGGGGGWRAAQDRDQIYRRRSPSPYYSRGGYRSRSRSRSYSPRRY
B6: CPSF1 (protein, UniProt Q10570 1-1443)
chain: MYAVYKQAHPPTGLEFSMYCNFFNNSERNLVVAGTSQLYVYRLNRDAEALTKNDRSTEGKAHREKLELAASFSFFGNVMSMASVQLAGAKRDALLLSFKDAKLSVVEYDPGTHDLKTLSLHYFEEPELRDGFVQNVHTPRVRVDPDGRCAAMLVYGTRLVVLPFRRESLAEEHEGLVGEGQRSSFLPSYIIDVRALDEKLLNIIDLQFLHGYYEPTLLILFEPNQTWPGRVAVRQDTCSIVAISLNITQKVHPVIWSLTSLPFDCTQALAVPKPIGGVVVFAVNSLLYLNQSVPPYGVALNSLTTGTTAFPLRTQEGVRITLDCAQATFISYDKMVISLKGGEIYVLTLITDGMRSVRAFHFDKAAASVLTTSMVTMEPGYLFLGSRLGNSLLLKYTEKLQEPPASAVREAADKEEPPSKKKRVDATAGWSAAGKSVPQDEVDEIEVYGSEAQSGTQLATYSFEVCDSILNIGPCANAAVGEPAFLSEEFQNSPEPDLEIVVCSGHGKNGALSVLQKSIRPQVVTTFELPGCYDMWTVIAPVRKEEEDNPKGEGTEQEPSTTPEADDDGRRHGFLILSREDSTMILQTGQEIMELDTSGFATQGPTVFAGNIGDNRYIVQVSPLGIRLLEGVNQLHFIPVDLGAPIVQCAVADPYVVIMSAEGHVTMFLLKSDSYGGRHHRLALHKPPLHHQSKVITLCLYRDLSGMFTTESRLGGARDELGGRSGPEAEGLGSETSPTVDDEEEMLYGDSGSLFSPSKEEARRSSQPPADRDPAPFRAEPTHWCLLVRENGTMEIYQLPDWRLVFLVKNFPVGQRVLVDSSFGQPTTQGEARREEATRQGELPLVKEVLLVALGSRQSRPYLLVHVDQELLIYEAFPHDSQLGQGNLKVRFKKVPHNINFREKKPKPSKKKAEGGGAEEGAGARGRVARFRYFEDIYGYSGVFICGPSPHWLLVTGRGALRLHPMAIDGPVDSFAPFHNVNCPRGFLYFNRQGELRISVLPAYLSYDAPWPVRKIPLRCTAHYVAYHVESKVYAVATSTNTPCARIPRMTGEEKEFETIERDERYIHPQQEAFSIQLISPVSWEAIPNARIELQEWEHVTCMKTVSLRSEETVSGLKGYVAAGTCLMQGEEVTCRGRILIMDVIEVVPEPGQPLTKNKFKVLYEKEQKGPVTALCHCNGHLVSAIGQKIFLWSLRASELTGMAFIDTQLYIHQMISVKNFILAADVMKSISLLRYQEESKTLSLVSRDAKPLEVYSVDFMVDNAQLGFLVSDRDRNLMVYMYLPEAKESFGGMRLLRRADFHVGAHVNTFWRTPCRGATEGLSKKSVVWENKHITWFATLDGGIGLLLPMQEKTYRRLLMLQNALTTMLPHHAGLNPRAFRMLHVDRRTLQNAVRNVLDGELLNRYLYLSTMERSELAKKIGTTPDIILDDLLETDRVTAHF
B7: CPSF2 (protein, UniProt Q9P2I0 1-782)
chain: MTSIIKLTTLSGVQEESALCYLLQVDEFRFLLDCGWDEHFSMDIIDSLRKHVHQIDAVLLSHPDPLHLGALPYAVGKLGLNCAIYATIPVYKMGQMFMYDLYQSRHNTEDFTLFTLDDVDAAFDKIQQLKFSQIVNLKGKGHGLSITPLPAGHMIGGTIWKIVKDGEEEIVYAVDFNHKREIHLNGCSLEMLSRPSLLITDSFNATYVQPRRKQRDEQLLTNVLETLRGDGNVLIAVDTAGRVLELAQLLDQIWRTKDAGLGVYSLALLNNVSYNVVEFSKSQVEWMSDKLMRCFEDKRNNPFQFRHLSLCHGLSDLARVPSPKVVLASQPDLECGFSRDLFIQWCQDPKNSIILTYRTTPGTLARFLIDNPSEKITEIELRKRVKLEGKELEEYLEKEKLKKEAAKKLEQSKEADIDSSDESDIEEDIDQPSAHKTKHDLMMKGEGSRKGSFFKQAKKSYPMFPAPEERIKWDEYGEIIKPEDFLVPELQATEEEKSKLESGLTNGDEPMDQDLSDVPTKCISTTESIEIKARVTYIDYEGRSDGDSIKKIINQMKPRQLIIVHGPPEASQDLAECCRAFGGKDIKVYMPKLHETVDATSETHIYQVRLKDSLVSSLQFCKAKDAELAWIDGVLDMRVSKVDTGVILEEGELKDDGEDSEMQVEAPSDSSVIAQQKAMKSLFGDDEKETGEESEIIPTLEPLPPHEVPGHQSVFMNEPRLSDFKQVLLREGIQAEFVGGVLVCNNQVAVRRTETGRIGLEGCLCQDFYRIRDLLYEQYAIV

Each molecule was assayed against T1, EGFP–ARS2 wt (human) (assay: affinity purification with mass spectrometry; EGFP-tagged ARS2 constructs expressed in HEK 293T/17, lysis in 20 mM HEPES pH 7.4, 120 mM NaCl, 0.1% Triton X-100 with RNase H, GFP-Trap beads, TMT labelling, LC–MS/MS; controls EGFP and pcDNA3.1).

binding, binds:
EXOSC9 (from UniProt Q06265 1-439), RBM7 (from UniProt Q9Y580 1-266), ZFC3H1 (from UniProt O60293 1-1989), CPSF6 (from UniProt Q16630 1-551), ZCCHC8 (from UniProt Q6NZY4 1-707), CPSF3L (from UniProt Q5TA45 1-600), B1, B2, B3, B4, B5, B6, B7

No constants are given. Whether binding was seen depends on the method and setting. In cells and extracts the contact can be indirect. These calls come from enrichment with a bait or labelling near it, and not all partners need be listed. Where a sequence is shown, tags or fusion partners need not be part of it.
